No constants are given. Whether binding was seen depends on the method and setting. Binding seen in cells or lysates may run through a third protein. A result given as binding can be weak or reduced; the word gives no strength.
Molecular target: Strep-B56α (UniProt Q15172)
Assay: pull-down + SEC

The chains behind the UniProt entries cited, without tags or fusion partners. Where a name states a change or a piece, a line headed by the entry shows the natural chain unless it says otherwise.
UniProt Q15172: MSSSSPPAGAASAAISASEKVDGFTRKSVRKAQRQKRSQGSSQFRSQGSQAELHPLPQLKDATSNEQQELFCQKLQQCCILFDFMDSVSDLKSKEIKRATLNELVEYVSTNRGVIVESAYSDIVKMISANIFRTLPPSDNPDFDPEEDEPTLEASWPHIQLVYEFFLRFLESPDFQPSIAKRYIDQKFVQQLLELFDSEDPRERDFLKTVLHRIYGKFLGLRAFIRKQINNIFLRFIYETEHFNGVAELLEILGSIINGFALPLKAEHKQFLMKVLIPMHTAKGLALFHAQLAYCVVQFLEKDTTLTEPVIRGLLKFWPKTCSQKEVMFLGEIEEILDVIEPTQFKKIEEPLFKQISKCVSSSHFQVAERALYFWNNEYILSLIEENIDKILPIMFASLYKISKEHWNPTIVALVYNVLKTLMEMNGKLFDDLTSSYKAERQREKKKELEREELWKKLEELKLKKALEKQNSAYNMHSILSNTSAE
UniProt P67775: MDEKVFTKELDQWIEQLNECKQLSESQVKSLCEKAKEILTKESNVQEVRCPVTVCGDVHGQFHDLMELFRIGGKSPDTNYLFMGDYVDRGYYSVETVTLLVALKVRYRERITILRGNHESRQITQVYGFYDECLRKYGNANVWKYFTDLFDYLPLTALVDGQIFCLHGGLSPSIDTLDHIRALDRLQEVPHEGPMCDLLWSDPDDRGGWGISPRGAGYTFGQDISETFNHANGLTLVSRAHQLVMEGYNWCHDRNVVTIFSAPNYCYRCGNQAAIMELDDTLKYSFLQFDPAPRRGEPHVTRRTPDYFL

His-PP2ACA (from UniProt P67775) (enzyme)
binding: binds

Reference: publication doi:10.1101/2021.07.08.451586
